The list shows a part of the results. No stated cut-off is given here; in the data, active = 2 or more and inactive = the rest. Most values lie within the scatter of the assay; repeated measurements hardly agree.
What follows are compounds tested on Lgr5 (MarsCy1-Lgr5-EGFP, U2OS) (assay: cell-surface Lgr5 expression (SCi1 fluorescence, background-subtracted) relative to WT DMSO (fold of DMSO control); higher = more Lgr5 at the plasma membrane). Conditions: U2OS MarsCy1-Lgr5-EGFP stable; treatment time: overnight; library: ActiProbe-5K (TimTec); 25 µM.

Row | SMILES | cell-surface Lgr5 expression
1 | O=C1CCCCCCCCCCCC(O)CCO1 (configuration not stated) | inactive: 1.03
2 | C[n+]1c2cc(N)ccc2cc2ccc(N)cc21.Cl.[Cl-] | inactive: 0.219
3 | N=C1NC(=O)/C(=C2/C(=O)Nc3ccccc32)S1 | inactive: 0.731
4 | O=C1CCCN1C(=O)CCC(=O)N1CCCC1=O | inactive: 0.814
5 | CN(C)C(=O)CSc1nnc(-c2ccco2)o1 | inactive: 1.95
6 | O=S(=O)(Nc1ccc(Br)cc1)c1ccc(F)cc1 | inactive: 1.25
7 | Cc1nn(Cn2cc(Cl)cn2)c(C)c1N | inactive: 1.21
8 | Cc1nc2nc(S(=O)(=O)N3CCCCC3)nn2c(C)c1C | inactive: 1.4
9 | CCCC(C)C(=O)NCC1CCCO1 (configuration not stated) | inactive: 1.18
10 | Nc1nonc1-c1noc(-c2sc3ccccc3c2Cl)n1 | inactive: 1.22
11 | N=C(N)SCc1csc2c1CCCC2 | inactive: 1.17
12 | O=[N+]([O-])c1cc(C(F)(F)F)ccc1F | inactive: 1.31
13 | COc1cc2nc(SCc3ccon3)[nH]c2cc1OC | inactive: 1.15
14 | COC(=O)C1=C(OC)C(=O)OC12C=CC(=O)C=C2 | inactive: 0.434
15 | CNc1ccc(OC(F)(F)F)cc1 | inactive: 1.1
16 | COCc1nnc(NC(=O)C23CC4CC(CC(C4)C2)C3)s1 | inactive: 1.17
17 | CS(=O)(=O)N(Cc1ccon1)c1ccc(F)cc1 | inactive: 1.18
18 | Cc1nc2[nH]cc(C(=O)O)c(=O)n2n1 | inactive: 1.28
19 | Cn1cccc1CC(=O)N/N=C/C=C/c1ccco1 | inactive: 1.61
20 | O=C(O)CCc1cc(Cl)no1 | inactive: 1.13
21 | S=c1nc2[nH]c3ccccc3c2n[nH]1 | inactive: 1.34
22 | Oc1ccc(/C=N/c2nccs2)c(O)c1 | inactive: 1.09
23 | CS(=O)(=O)N1CCCc2cc(S(=O)(=O)N3CCCC3)ccc21 | inactive: 1.12
24 | CCn1cc(CNS(=O)(=O)c2cnn(CC)c2C)cn1 | inactive: 1.26

Row | SMILES | cell-surface Lgr5 expression
25 | C[N+](C)(CCC#N)Cc1cccc2ccccc12.[Cl-] | inactive: 1.79
26 | NC(=O)N/N=C\c1ccc(N)o1 | inactive: 1.12
27 | Cc1nc2n(n1)C=COc1ccccc1-2 | inactive: 1.17
28 | [O-][n+]1onc(C(c2ccccc2)c2ccccc2)c1C(c1ccccc1)c1ccccc1 | inactive: 0.888
29 | O=[N+]([O-])c1cnn(C2=CNc3ccccc3N=C2)c1 | inactive: 1.33
30 | O=[N+]([O-])c1ccc(Sc2ccsc2)c([N+](=O)[O-])c1 | inactive: 1.45
31 | S=C(Nc1cnn(COc2ccc(Br)cc2)c1)NC1CC1 | inactive: 1.41
32 | OC(CN1c2ccccc2Sc2ccccc21)Cn1cnc(-c2ccccc2)c1-c1ccccc1 (configuration not stated) | inactive: 0.848
33 | CC1CCCCN1C(=O)N1CCOCC1 (configuration not stated) | inactive: 1.02
34 | N#Cc1c2c(c(=O)n3c1[nH]c1ccccc13)CCC2 | inactive: 1.31
35 | CC(=O)c1nnn(-c2nc(N3CCCC3)nc(N3CCCC3)n2)c1C | inactive: 1
36 | CCCCc1c(C)nc(N/N=C(\C)CC)nc1O | inactive: 1.22
37 | COC(=O)/C(C#N)=C\Nc1ccsn1 | inactive: 1.04
38 | O=[N+]([O-])c1ccccc1NC1OC(CO)C(O)C1O (configuration not stated) | inactive: 1.08
39 | N#CCCSc1nc2ccccc2s1 | inactive: 1.42
40 | O=[N+]([O-])c1ccc(N2CCOCC2)cc1N1CCOCC1 | inactive: 1.08
41 | OCC1OC(Nc2ccccc2)CC1O (configuration not stated) | inactive: 1.07
42 | Brc1ccc2ncnc(N3CCOCC3)c2c1 | inactive: 0.402
43 | Cn1nnnc1SC1=CS(=O)(=O)c2ccccc21 | inactive: 0.717
44 | COc1cc(/C=N/n2nnnc2N)cc(Cl)c1OC | inactive: 1.42
45 | CCN1/C(=C2\SC(=S)N(C)C2=O)Sc2ccc(Cl)cc21 | inactive: 1.24
46 | Cc1ccc(C(O)c2nccn2C)o1 (configuration not stated) | inactive: 1.13
47 | Cc1ccc2c(c1)-c1c(ssc1=S)C(C)(C)N2 | inactive: 1.25
48 | CN(C)CCCNS(=O)(=O)c1ccc(F)cc1 | inactive: 0.977

Molecules shown so far with two or more sulfur atoms:
Row | SMILES | cell-surface Lgr5 expression
11 | N=C(N)SCc1csc2c1CCCC2 | inactive: 1.17
23 | CS(=O)(=O)N1CCCc2cc(S(=O)(=O)N3CCCC3)ccc21 | inactive: 1.12
30 | O=[N+]([O-])c1ccc(Sc2ccsc2)c([N+](=O)[O-])c1 | inactive: 1.45
39 | N#CCCSc1nc2ccccc2s1 | inactive: 1.42
43 | Cn1nnnc1SC1=CS(=O)(=O)c2ccccc21 | inactive: 0.717
45 | CCN1/C(=C2\SC(=S)N(C)C2=O)Sc2ccc(Cl)cc21 | inactive: 1.24
47 | Cc1ccc2c(c1)-c1c(ssc1=S)C(C)(C)N2 | inactive: 1.25

Carrying on.

Row | SMILES | cell-surface Lgr5 expression
49 | O=c1c2c3c(sc2nc2n1CCCC2)CCCCC3 | inactive: 1.21
50 | O=C(NC1CCS(=O)(=O)C1)C(=O)NC1CCS(=O)(=O)C1 (configuration not stated) | inactive: 1.11
51 | Cn1ccnc1/C=N\Nc1cc(Cl)ccc1Cl | inactive: 1.23
52 | CC1=CC(=O)C2(CCCCC2)NC1 | inactive: 1.19
53 | O=S(=O)(Nc1ccc(F)c(F)c1)c1cccs1 | inactive: 1.21
54 | CNC(=O)c1c(N)sc2c1CCCCC2 | inactive: 1.25
55 | CSC1=NC(C)(C)CC12C=CC(=O)c1ccccc12 (configuration not stated) | inactive: 1.02
56 | CNCc1cc2ccccc2s1.Cl | inactive: 1.26
57 | CCOC(=O)CSc1nsc(SCC(=O)OCC)c1C#N | inactive: 1.14
58 | c1ccc2c(SCc3ccc4nsnc4c3)ncnc2c1 | inactive: 1.14
59 | NC(=S)N/N=C\c1c[nH]c2ccccc12 | inactive: 1.24
60 | O=c1c(O)c(-c2ccc(O)cc2O)oc2ccc(O)cc12 | inactive: 1.13
61 | N/C(=N/OCc1cc2c(cc1Cl)OCO2)c1nonc1N | inactive: 1.01
62 | COCCCN1C(=O)/C(=C/c2cccs2)SC1=S | inactive: 1.13
63 | C1(=C2\c3c(cccc3)C(C2)=O)/C(c2ccccc2C1=O)=O | inactive: 1.1
64 | O=C(O)C12CC3CC(C1)CC([N+](=O)[O-])(C3)C2 | inactive: 1.39
65 | Nc1ccccc1-n1cnc2ccccc21 | inactive: 1.12
66 | O=c1c2c(nc3[nH]c4ccccc4n13)CCCC2 | inactive: 0.971
67 | c1ccc(Sc2ncnc3sc4c(c23)CCCC4)cc1 | inactive: 1.14
68 | C=CCn1c2ccccc2c2nnc(SCc3ccc4nonc4c3)nc21 | active: 2.34
69 | CC(/C=N/NC(N)=S)=C\c1ccc2c(c1)OCO2 | inactive: 1.15
70 | CN1CCc2c(sc(N)c2C(N)=O)C1 | inactive: 1.32
71 | Nc1nc(=O)c2[nH]c(=S)n(C3OC(CO)C(O)C3O)c2[nH]1 (configuration not stated) | inactive: 1.02
72 | COc1ccnc2cc(Cl)ccc12 | inactive: 0.999

Two compounds picked at random from the list so far:
Row | SMILES | cell-surface Lgr5 expression
51 | Cn1ccnc1/C=N\Nc1cc(Cl)ccc1Cl | inactive: 1.23
72 | COc1ccnc2cc(Cl)ccc12 | inactive: 0.999

— the supplement of paper PMC4683952
